The results in this text go back to PMC10079926.

Sequences of proteins named here, by UniProt entry; tags and fusion partners are left off. A change or cut given only in a name is not applied to a line headed by its entry. Residues count along the entry.
UniProt Q5GJ75: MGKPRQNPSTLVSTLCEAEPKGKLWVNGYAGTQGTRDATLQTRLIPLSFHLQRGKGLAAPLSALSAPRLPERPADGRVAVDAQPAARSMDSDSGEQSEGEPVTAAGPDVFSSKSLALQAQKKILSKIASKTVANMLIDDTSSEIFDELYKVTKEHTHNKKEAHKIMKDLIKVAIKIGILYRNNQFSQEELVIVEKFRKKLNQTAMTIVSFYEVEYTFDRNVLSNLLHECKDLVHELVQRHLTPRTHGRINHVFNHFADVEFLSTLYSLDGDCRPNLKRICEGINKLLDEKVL
UniProt O75947: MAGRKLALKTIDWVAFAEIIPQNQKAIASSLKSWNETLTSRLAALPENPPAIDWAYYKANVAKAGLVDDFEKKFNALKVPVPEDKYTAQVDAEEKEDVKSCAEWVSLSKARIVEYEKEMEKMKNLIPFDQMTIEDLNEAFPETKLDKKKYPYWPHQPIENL
UniProt P19404, residues 33-249: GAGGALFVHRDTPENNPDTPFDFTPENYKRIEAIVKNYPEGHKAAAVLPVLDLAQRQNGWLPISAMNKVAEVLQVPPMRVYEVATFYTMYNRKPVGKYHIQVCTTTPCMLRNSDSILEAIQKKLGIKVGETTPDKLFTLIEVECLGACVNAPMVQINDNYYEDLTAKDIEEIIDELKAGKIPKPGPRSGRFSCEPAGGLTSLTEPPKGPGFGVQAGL
UniProt Q9UI09: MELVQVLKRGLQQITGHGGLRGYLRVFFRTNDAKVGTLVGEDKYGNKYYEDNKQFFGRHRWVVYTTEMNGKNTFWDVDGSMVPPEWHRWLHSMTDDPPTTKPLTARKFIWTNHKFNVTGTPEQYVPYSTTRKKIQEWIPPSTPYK
UniProt O00217, residues 35-210: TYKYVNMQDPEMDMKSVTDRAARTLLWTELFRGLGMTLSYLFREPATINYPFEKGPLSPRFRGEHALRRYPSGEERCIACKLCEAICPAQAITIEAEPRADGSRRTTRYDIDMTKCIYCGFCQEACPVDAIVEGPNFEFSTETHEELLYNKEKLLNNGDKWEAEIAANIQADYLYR

No constants are given. Whether binding was seen depends on the method and setting. Binding seen in cells or lysates may run through a third protein. A yes stands for co-enrichment or nearness to the bait. Other partners may have been found.

The assay deals with TIPE3-HA (full-length TIPE3, TNFAIP8L3) (UniProt Q5GJ75). As to the kind of experiment: affinity purification with mass spectrometry; co-IP/MS: proteins immunoprecipitated by HA from extract of Cal33 cells with TIPE3-HA; IP lysis buffer, antibody overnight at 4 °C, protein A/G Sepharose beads; mass spectrometry.
“ATP5H (Complex V) (from UniProt O75947 1-161)”: the binding entry is “binds”.

For “NDUFV2 (Complex I) (from UniProt P19404 33-249)”, the binding result was “binds”.

As for “NDUFA12 (Complex I) (from UniProt Q9UI09 1-145)”, the binding result was “binds”.

Consider “NDUFS8 (Complex I) (from UniProt O00217 35-210)”, for which the binding result is recorded as “binds”.
